The other results are listed elsewhere or left out.

The chains behind the UniProt entries cited, without tags or fusion partners. Where a name states a change or a piece, a line headed by the entry shows the natural chain unless it says otherwise.
UniProt Q9NTX5: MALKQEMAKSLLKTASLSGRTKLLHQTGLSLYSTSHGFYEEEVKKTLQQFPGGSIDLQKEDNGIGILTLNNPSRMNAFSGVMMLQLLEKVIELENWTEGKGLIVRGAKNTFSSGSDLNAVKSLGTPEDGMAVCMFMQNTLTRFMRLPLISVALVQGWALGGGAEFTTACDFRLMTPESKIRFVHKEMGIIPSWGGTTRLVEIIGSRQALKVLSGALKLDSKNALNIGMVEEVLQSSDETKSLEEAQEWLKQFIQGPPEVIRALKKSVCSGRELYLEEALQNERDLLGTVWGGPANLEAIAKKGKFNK
UniProt Q9BTV6: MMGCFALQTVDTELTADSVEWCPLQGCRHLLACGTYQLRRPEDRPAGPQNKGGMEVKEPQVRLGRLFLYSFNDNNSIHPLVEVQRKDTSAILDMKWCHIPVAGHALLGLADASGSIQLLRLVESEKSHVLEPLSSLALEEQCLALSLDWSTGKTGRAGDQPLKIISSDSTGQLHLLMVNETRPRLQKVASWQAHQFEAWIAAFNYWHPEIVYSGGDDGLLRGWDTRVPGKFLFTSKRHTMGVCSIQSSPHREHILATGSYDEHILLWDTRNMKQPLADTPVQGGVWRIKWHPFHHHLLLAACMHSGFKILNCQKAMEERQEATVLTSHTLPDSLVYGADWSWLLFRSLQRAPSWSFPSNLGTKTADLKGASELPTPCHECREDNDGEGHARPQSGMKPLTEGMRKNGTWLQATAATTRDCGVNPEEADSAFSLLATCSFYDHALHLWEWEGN
UniProt Q9P2X0: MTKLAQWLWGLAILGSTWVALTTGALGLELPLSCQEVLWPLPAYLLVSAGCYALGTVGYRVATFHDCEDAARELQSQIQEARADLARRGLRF
UniProt Q5JPH6: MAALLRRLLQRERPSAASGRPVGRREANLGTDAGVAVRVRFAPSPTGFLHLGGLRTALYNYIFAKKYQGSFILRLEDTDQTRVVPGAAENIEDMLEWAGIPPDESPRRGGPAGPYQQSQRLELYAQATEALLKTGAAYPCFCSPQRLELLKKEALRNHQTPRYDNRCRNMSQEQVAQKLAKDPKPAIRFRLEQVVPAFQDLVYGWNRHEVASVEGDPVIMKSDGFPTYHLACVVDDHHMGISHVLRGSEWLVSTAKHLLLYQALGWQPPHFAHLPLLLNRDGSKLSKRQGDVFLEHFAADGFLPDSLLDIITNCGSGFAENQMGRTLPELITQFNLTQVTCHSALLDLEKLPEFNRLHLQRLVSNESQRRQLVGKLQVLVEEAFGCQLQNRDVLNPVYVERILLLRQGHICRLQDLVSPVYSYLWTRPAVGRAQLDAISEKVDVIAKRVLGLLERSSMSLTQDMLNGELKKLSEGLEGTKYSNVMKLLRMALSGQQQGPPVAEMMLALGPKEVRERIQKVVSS
UniProt O60762: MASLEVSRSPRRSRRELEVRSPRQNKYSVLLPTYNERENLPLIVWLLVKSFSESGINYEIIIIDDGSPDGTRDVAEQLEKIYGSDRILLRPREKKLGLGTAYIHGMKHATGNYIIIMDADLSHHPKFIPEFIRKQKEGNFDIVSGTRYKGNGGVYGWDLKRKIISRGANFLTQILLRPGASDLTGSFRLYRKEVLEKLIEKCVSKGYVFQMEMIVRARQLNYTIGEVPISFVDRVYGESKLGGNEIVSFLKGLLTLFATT
UniProt P42892: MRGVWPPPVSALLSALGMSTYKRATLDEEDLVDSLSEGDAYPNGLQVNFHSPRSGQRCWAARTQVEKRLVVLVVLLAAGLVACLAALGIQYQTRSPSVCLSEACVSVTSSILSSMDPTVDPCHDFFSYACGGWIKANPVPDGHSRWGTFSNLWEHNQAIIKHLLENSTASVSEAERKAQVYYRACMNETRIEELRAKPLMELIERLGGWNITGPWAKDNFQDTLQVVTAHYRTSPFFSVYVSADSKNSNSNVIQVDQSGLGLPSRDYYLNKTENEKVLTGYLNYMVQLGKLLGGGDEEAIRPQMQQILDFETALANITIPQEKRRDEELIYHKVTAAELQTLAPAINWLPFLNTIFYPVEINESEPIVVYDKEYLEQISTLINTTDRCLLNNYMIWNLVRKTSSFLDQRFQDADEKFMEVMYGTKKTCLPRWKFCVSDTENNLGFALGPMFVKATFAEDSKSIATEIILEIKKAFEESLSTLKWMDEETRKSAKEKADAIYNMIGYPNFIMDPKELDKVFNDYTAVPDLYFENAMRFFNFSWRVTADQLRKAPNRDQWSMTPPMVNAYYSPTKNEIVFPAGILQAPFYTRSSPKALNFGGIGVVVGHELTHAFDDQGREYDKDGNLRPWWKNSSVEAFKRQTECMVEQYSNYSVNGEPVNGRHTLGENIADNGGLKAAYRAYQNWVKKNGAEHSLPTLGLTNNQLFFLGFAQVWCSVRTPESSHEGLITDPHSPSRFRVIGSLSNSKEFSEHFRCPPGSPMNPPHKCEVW
UniProt O60869: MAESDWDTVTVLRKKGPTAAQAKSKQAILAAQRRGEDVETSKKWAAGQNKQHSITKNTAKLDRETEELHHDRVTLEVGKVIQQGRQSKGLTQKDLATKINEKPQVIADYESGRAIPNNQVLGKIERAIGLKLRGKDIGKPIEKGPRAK
UniProt O75190: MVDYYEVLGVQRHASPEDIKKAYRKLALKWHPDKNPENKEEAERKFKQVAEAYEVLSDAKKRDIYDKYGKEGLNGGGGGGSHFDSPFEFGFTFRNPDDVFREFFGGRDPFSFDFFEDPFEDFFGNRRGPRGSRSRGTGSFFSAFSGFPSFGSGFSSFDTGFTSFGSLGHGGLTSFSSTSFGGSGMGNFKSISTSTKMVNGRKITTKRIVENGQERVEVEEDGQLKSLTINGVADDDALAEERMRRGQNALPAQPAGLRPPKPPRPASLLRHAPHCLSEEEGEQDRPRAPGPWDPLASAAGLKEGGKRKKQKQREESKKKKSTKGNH
UniProt Q15125: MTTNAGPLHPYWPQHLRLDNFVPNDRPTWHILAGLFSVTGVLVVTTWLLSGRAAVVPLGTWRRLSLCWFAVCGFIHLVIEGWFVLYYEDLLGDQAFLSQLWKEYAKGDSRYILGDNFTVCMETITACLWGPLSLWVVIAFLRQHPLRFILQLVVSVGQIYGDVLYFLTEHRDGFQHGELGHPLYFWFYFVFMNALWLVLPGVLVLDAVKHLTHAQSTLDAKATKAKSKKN
UniProt Q92785, whole entry, looked up: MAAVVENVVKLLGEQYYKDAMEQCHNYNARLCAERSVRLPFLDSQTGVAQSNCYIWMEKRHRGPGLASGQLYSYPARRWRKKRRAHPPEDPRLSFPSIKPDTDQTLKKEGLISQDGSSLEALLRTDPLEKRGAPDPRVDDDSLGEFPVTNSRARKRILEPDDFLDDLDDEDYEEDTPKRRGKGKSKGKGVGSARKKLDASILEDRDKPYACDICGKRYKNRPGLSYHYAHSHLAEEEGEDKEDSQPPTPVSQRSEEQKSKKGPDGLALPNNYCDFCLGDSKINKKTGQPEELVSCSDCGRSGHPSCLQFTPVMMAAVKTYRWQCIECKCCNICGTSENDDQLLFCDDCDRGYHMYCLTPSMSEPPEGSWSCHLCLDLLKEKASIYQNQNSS
UniProt Q8WWZ3: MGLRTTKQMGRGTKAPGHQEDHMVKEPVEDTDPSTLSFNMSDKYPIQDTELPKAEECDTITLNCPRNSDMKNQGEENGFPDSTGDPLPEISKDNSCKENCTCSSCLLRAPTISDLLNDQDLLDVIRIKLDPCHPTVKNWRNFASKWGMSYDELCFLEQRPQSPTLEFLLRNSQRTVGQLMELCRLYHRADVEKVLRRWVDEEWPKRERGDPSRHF
UniProt O95620: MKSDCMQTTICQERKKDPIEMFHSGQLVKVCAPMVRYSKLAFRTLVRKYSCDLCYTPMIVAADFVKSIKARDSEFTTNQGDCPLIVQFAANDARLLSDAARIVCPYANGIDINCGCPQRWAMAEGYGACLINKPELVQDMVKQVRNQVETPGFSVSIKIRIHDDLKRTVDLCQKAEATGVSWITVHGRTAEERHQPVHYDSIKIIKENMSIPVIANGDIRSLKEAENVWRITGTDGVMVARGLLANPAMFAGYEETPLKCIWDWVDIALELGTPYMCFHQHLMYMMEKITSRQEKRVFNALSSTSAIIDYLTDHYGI
UniProt Q01658: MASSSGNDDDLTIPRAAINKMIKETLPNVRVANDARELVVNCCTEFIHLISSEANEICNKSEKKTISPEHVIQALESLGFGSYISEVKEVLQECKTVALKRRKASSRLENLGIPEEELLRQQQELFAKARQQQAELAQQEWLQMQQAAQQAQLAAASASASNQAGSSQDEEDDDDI
UniProt P42126: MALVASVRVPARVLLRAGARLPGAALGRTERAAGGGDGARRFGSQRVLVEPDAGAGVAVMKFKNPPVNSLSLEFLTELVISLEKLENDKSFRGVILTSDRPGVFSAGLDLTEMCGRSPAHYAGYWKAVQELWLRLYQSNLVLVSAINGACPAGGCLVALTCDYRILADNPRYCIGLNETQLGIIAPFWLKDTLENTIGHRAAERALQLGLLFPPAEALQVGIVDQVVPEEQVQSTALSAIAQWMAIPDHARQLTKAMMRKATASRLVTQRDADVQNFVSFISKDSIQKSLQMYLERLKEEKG
UniProt P60981: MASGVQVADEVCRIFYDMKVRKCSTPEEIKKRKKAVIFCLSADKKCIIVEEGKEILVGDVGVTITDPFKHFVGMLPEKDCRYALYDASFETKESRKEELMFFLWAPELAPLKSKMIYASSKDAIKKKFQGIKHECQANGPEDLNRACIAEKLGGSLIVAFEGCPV
UniProt Q9BQC3: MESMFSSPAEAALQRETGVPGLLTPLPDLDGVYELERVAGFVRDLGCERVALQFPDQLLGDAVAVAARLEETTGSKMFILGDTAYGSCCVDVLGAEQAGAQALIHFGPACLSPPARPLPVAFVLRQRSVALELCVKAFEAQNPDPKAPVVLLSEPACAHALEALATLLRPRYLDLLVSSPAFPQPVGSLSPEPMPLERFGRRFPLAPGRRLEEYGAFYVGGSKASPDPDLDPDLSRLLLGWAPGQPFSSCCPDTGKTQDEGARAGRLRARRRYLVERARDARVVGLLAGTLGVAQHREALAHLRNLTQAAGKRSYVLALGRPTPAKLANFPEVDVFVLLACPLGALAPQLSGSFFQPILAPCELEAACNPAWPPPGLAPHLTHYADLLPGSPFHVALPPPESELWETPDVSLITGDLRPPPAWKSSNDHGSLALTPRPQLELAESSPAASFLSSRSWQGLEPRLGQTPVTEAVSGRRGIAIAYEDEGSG
UniProt Q02487, whole entry, looked up: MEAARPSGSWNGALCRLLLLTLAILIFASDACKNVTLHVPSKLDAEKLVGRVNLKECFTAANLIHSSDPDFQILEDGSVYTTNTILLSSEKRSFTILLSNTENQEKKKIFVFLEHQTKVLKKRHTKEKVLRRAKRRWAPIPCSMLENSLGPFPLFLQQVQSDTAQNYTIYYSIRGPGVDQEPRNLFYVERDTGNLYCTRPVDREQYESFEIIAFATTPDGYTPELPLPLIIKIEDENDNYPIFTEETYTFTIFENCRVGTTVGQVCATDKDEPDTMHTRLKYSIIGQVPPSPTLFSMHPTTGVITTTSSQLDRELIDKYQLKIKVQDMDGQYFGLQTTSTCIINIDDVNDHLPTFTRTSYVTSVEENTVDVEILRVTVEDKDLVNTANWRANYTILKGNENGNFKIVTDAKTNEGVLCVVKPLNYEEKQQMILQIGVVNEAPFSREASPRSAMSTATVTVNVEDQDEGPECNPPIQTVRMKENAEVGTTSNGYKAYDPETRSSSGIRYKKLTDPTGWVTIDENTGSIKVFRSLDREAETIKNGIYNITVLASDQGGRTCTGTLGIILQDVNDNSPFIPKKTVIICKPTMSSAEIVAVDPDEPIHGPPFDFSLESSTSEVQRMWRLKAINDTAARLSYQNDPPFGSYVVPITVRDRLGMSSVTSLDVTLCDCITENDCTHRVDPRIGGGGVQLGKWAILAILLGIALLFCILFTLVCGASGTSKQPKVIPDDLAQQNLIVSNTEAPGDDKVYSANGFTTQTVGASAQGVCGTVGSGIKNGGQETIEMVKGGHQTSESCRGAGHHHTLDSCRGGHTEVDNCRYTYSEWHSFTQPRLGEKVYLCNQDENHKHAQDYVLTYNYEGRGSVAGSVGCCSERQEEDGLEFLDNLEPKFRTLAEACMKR
UniProt Q9Y6G9, whole entry, looked up: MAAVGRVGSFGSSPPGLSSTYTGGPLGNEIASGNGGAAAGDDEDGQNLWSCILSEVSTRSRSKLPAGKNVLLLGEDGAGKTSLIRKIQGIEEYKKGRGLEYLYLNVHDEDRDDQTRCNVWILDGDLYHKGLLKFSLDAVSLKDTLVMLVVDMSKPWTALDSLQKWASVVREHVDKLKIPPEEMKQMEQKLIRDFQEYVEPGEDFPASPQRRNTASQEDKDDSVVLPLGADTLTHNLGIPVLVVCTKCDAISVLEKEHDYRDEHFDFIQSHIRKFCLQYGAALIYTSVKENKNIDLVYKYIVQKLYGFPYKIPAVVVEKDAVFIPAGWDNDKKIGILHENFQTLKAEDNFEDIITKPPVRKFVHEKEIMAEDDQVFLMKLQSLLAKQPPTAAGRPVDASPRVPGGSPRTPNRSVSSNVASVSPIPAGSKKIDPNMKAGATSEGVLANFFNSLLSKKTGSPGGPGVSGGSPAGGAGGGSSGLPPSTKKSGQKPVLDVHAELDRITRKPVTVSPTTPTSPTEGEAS

Compound in one assay: CCCc1cc(C)[nH]c(=O)c1CNC(=O)c1cc(-c2ccnc(N3CCN(C)CC3)c2)cc2c1cnn2C(C)C
The experiment in a line: log2 fold change, soluble protein after heating vs DMSO (PISA); higher = thermal stabilisation; K562 cells, 10 uM, 30 min; active = over 0.2 and 3.5 SD of the protein, either way, in both replicates (recomputed). The gist of the method:
(§1)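 Quantification of soluble protein used TMTpro 16plex LC-MS/MS, with channel sums equalised. Samples were the supernatant after 21,000xg for 90 min of pooled aliquots from K562 cells (2×10^6 cells/mL) treated with 10 μM compound for 30 min, heated for 3 min over 48°C-58°C, and extracted in PBS with 0.5% NP-40 at 4°C. Values, from duplicates, describe thermal stability against control samples on a log2 fold-change scale.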
In the case of ECHDC1 (UniProt Q9NTX5), the log2 fold change is inactive: -0.025.

For the target DNAJA3 (UniProt Q96EY1), the log2 fold change is inactive: 0.026.

As to DPH7 (UniProt Q9BTV6), the log2 fold change was inactive: 0.005.

On to DPM3 isoform 2 (UniProt Q9P2X0), for which the log2 fold change was inactive: 0.003.

Turning to EARS2 isoform 2 (UniProt Q5JPH6), the log2 fold change was inactive: 0.08.

In the case of DST (UniProt Q03001), the log2 fold change was inactive: -0.378.

DPM1 (UniProt O60762): the log2 fold change was inactive: -0.018.

Regarding ECE1 (UniProt P42892), the log2 fold change was inactive: -0.053.

Consider EDF1 (UniProt O60869), for which the log2 fold change is inactive: 0.096.

As for DPY19L4 (UniProt Q7Z388), the log2 fold change was inactive: -0.017.

Take DNAJB6 (UniProt O75190): the log2 fold change is inactive: 0.053.

On to EDEM1 (UniProt Q92611), for which the log2 fold change is inactive: 0.08.

On to DNAJB4 (UniProt Q9UDY4), for which the log2 fold change was inactive: 0.09.

With EBP (UniProt Q15125), the log2 fold change is inactive: -0.09.

Consider DUT (UniProt P33316), for which the log2 fold change was inactive: -0.02.

As to DPF2 (UniProt Q92785), the log2 fold change is inactive: 0.032.

Turning to EDARADD (UniProt Q8WWZ3), the log2 fold change is inactive: -0.083.

For DUS4L (UniProt O95620), the log2 fold change is inactive: -0.097.

As for DR1 (UniProt Q01658), the log2 fold change is inactive: -0.087.

Turning to DUSP12 (UniProt Q9UNI6), the log2 fold change was inactive: -0.017.

On to EAF1 (UniProt Q96JC9), for which the log2 fold change was inactive: 0.006.

With DPH1 (UniProt Q9BZG8), the log2 fold change is inactive: 0.067.

Regarding DPY30 (UniProt Q9C005), the log2 fold change is inactive: 0.01.

DNMT1 isoform 2 (UniProt P26358): the log2 fold change is inactive: -0.01.

As for DNAJC3 (UniProt Q13217), the log2 fold change was inactive: 0.017.

With DSG2 (UniProt Q14126), the log2 fold change is inactive: 0.012.

As to ECI1 (UniProt P42126), the log2 fold change is inactive: -0.038.

Regarding DRG1 (UniProt Q9Y295), the log2 fold change is inactive: 0.015.

Take DSTN (UniProt P60981): the log2 fold change is inactive: 0.001.

As for DOCK9 isoform 4 (UniProt Q9BZ29), the log2 fold change was inactive: -0.009.

Regarding DPH2 (UniProt Q9BQC3), the log2 fold change was inactive: 0.03.

DSC2 (UniProt Q02487): the log2 fold change is inactive: 0.111.

Turning to DYNC1LI1 (UniProt Q9Y6G9), the log2 fold change is inactive: 0.041.

As for ECM1 isoform 4 (UniProt Q16610), the log2 fold change was inactive: 0.015.

Compound in the next assay: CCN(CC)Cc1ccc2cc(COC(=O)Nc3ccc(C(=O)NO)cc3)ccc2c1 [givinostat]
Described as above. An outline of the steps: as §1
ECHDC1 (UniProt Q9NTX5): the log2 fold change was inactive: -0.017.

On to DNAJA3 (UniProt Q96EY1), for which the log2 fold change is inactive: -0.055.

On to DPH7 (UniProt Q9BTV6), for which the log2 fold change was inactive: -0.001.

DPM3 isoform 2 (UniProt Q9P2X0): the log2 fold change was inactive: -0.054.

As to EARS2 isoform 2 (UniProt Q5JPH6), the log2 fold change is inactive: 0.078.

Regarding DST (UniProt Q03001), the log2 fold change was inactive: 0.207.

For DPM1 (UniProt O60762), the log2 fold change is inactive: -0.004.

With ECE1 (UniProt P42892), the log2 fold change is inactive: -0.023.

As to EDF1 (UniProt O60869), the log2 fold change is inactive: 0.002.

On to DPY19L4 (UniProt Q7Z388), for which the log2 fold change was inactive: -0.016.

For DNAJB6 (UniProt O75190), the log2 fold change was inactive: 0.019.

As for EDEM1 (UniProt Q92611), the log2 fold change is inactive: 0.073.

Take DNAJB4 (UniProt Q9UDY4): the log2 fold change is inactive: 0.071.

In the case of EBP (UniProt Q15125), the log2 fold change is inactive: 0.01.

For DUT (UniProt P33316), the log2 fold change was inactive: -0.001.

Take DPF2 (UniProt Q92785): the log2 fold change was inactive: 0.042.

For the target EDARADD (UniProt Q8WWZ3), the log2 fold change was inactive: -0.037.

As to DUS4L (UniProt O95620), the log2 fold change was inactive: 0.03.

With DR1 (UniProt Q01658), the log2 fold change is inactive: -0.065.

With DUSP12 (UniProt Q9UNI6), the log2 fold change is inactive: 0.006.

As for EAF1 (UniProt Q96JC9), the log2 fold change was inactive: 0.05.

For the target DPH1 (UniProt Q9BZG8), the log2 fold change was inactive: -0.185.

Turning to DPY30 (UniProt Q9C005), the log2 fold change is inactive: -0.036.

Turning to DNMT1 isoform 2 (UniProt P26358), the log2 fold change is inactive: -0.025.

Take DNAJC3 (UniProt Q13217): the log2 fold change was inactive: -0.005.

Regarding DSG2 (UniProt Q14126), the log2 fold change is inactive: -0.018.

Regarding ECI1 (UniProt P42126), the log2 fold change was inactive: -0.074.

As to DRG1 (UniProt Q9Y295), the log2 fold change is inactive: -0.029.

Take DSTN (UniProt P60981): the log2 fold change is inactive: -0.003.

On to DOCK9 isoform 4 (UniProt Q9BZ29), for which the log2 fold change was inactive: -0.135.

With DPH2 (UniProt Q9BQC3), the log2 fold change is inactive: -0.207.

Regarding DSC2 (UniProt Q02487), the log2 fold change is inactive: -0.012.

Regarding DYNC1LI1 (UniProt Q9Y6G9), the log2 fold change was inactive: -0.018.

Take ECM1 isoform 4 (UniProt Q16610): the log2 fold change is inactive: -0.014.

Compound in the next assay: CCN(CCCOc1ccc2c(Nc3cc(CC(=O)Nc4cccc(F)c4)[nH]n3)ncnc2c1)CCOP(=O)(O)O [barasertib]
The description is as above. The gist of the method:
as §1
Take ECHDC1 (UniProt Q9NTX5): the log2 fold change is inactive: 0.001.

Take DNAJA3 (UniProt Q96EY1): the log2 fold change was inactive: -0.07.

In the case of DPH7 (UniProt Q9BTV6), the log2 fold change is inactive: 0.

As to DPM3 isoform 2 (UniProt Q9P2X0), the log2 fold change was inactive: 0.118.

Regarding EARS2 isoform 2 (UniProt Q5JPH6), the log2 fold change is inactive: 0.132.

Turning to DST (UniProt Q03001), the log2 fold change was inactive: 0.025.

As to DPM1 (UniProt O60762), the log2 fold change was inactive: 0.

With ECE1 (UniProt P42892), the log2 fold change was inactive: 0.018.

For the target EDF1 (UniProt O60869), the log2 fold change is inactive: 0.012.

Regarding DPY19L4 (UniProt Q7Z388), the log2 fold change is inactive: -0.029.

As to DNAJB6 (UniProt O75190), the log2 fold change is inactive: 0.024.

As for EDEM1 (UniProt Q92611), the log2 fold change is inactive: -0.063.

Turning to DNAJB4 (UniProt Q9UDY4), the log2 fold change was inactive: 0.03.

Regarding EBP (UniProt Q15125), the log2 fold change was inactive: 0.015.

Regarding DUT (UniProt P33316), the log2 fold change is inactive: -0.005.

With DPF2 (UniProt Q92785), the log2 fold change is inactive: -0.015.

On to EDARADD (UniProt Q8WWZ3), for which the log2 fold change is inactive: 0.039.

On to DUS4L (UniProt O95620), for which the log2 fold change was inactive: -0.019.

With DR1 (UniProt Q01658), the log2 fold change was inactive: -0.018.

As to DUSP12 (UniProt Q9UNI6), the log2 fold change was inactive: 0.008.

Turning to EAF1 (UniProt Q96JC9), the log2 fold change is inactive: -0.008.

With DPH1 (UniProt Q9BZG8), the log2 fold change is inactive: 0.016.

For DPY30 (UniProt Q9C005), the log2 fold change is inactive: -0.023.

In the case of DNMT1 isoform 2 (UniProt P26358), the log2 fold change is inactive: 0.005.

Consider DNAJC3 (UniProt Q13217), for which the log2 fold change is inactive: -0.009.

As to DSG2 (UniProt Q14126), the log2 fold change was inactive: 0.005.

Take ECI1 (UniProt P42126): the log2 fold change was inactive: -0.004.

Take DRG1 (UniProt Q9Y295): the log2 fold change is inactive: -0.042.

Regarding DSTN (UniProt P60981), the log2 fold change is inactive: 0.018.

With DOCK9 isoform 4 (UniProt Q9BZ29), the log2 fold change was inactive: 0.002.

With DPH2 (UniProt Q9BQC3), the log2 fold change is inactive: 0.057.

With DSC2 (UniProt Q02487), the log2 fold change is inactive: 0.013.

As to DYNC1LI1 (UniProt Q9Y6G9), the log2 fold change is inactive: -0.001.

For ECM1 isoform 4 (UniProt Q16610), the log2 fold change was inactive: -0.018.

For the origin of these results see the supplement of paper PMC10849652.
